Source: patent US6911470B1, “Polyoxometalate compounds as antiviral agents” (priority 1988, dated 2005)
pEC50: −log10 of the molar value. Some results were stated once for a whole list of compounds, not compound by compound.

Test system: HIV-1 (strain LAV-1)
Assay type: cell-based
Settings: Table 1; read-out: EC50 Anti-HIV-1 Activity in Human PBM Cells
Procedure: Cells. Human peripheral blood mononuclear cells (PBMC) from healthy HIV-1 seronegative and hepatitis B virus seronegative donors were isolated by Ficoll-Hypaque discontinuous gradient centrifugation at 1,000×g for 30 minutes, washed twice in phosphate-buffered saline (pH 7.2; PBS), and pelleted at 300×g for 10 minutes. Before infection, the cells were stimulated by phytohemagglutinin (PHA) at a concentration of 6 μg/ml for three days in RPMI 1640 medium supplemented with 15% heat-inactivated fetal calf serum, 1.5 mM L-glutamine, penicillin (100 U/ml), streptomycin (100 μg/ml), and 4mM sodium bicarbonate buffer.
Viruses. […]
Inhibition of virus replication in human PBMC. […] The mean reverse transcriptase (RT) activity of the inocula was 50,000 decompositions per min/ml corresponding to about 100 TCID50, as determined by Groopman et al. (Groopman et al, AIDS Res. Human Retro. 3, 71-85, 1987. The drugs at twice their final concentrations in 5 ml of RPMI 1640 medium, supplemented as described above, were added to the cultures. Uninfected and untreated PBMC at equivalent cell densities were grown in parallel as controls. The cultures were maintained in a humidified 5% CO2-95% air incubator at 37° C. for six days after infection, at which point all cultures were sampled for supernatant reverse transcriptase (RT) activity. […]

Substance	pEC50
(n-Bu4N)2Mo6O19 [Formula 16]	< 4.30
α-(n-Bu4N)4Mo8O26 [Formula 20]	< 4.30
